Experimental data reported in publication PMC10286275 (ACS Omega, 2023).

Legend:
[1] = test system: SH-SY5Y cells; assay: Neuroprotection against H2O2-induced oxidative damage in SH-SY5Y cells; format: cell-based, human; conditions: 12.5 μmol/L, 24 h pretreatment, then H2O2 650 μM 4 h
[2] = test system: SH-SY5Y cells; assay: Toxicity against SH-SY5Y cell line; format: cell-based, human; conditions: 24 h, MTT

COc1cc2c(cc1OC)C(=O)C(CC1CCN(Cc3ccccc3)CC1)C2 (stereo not drawn) [DNP, Donepezil]
survival rate (%), neuroprotective effect against H2O2-induced cell death [1]: 57.21 ± 0.54% | survival rate (%) ([2]; 6.25 μmol/L): 96.14 ± 0.12% | survival rate (%) ([2]; 12.5 μmol/L): 95.21 ± 1.68%
